Some of these results come from one statement about several compounds together.
Test system: antibodies to HCY Oxime-BTG (example 4a)
Type: binding, mice

Compound | percent cross-reactivity relative to HCY Oxime
O=C(O)CCCc1ccc(N(CCCl)CCCl)cc1 [Chlorambucil, chlorambucil] | less than 1%
N[C@@H](Cc1ccc(N(CCCl)CCCl)cc1)C(=O)O [Melphalan, melphalan] | less than 1%

— patent US7276347B2 (priority 2004, dated 2007)
